{"source": "patent US20250073184A1", "about": "“CANNABIGEROQUINONE COMPOUNDS, COMPOSITIONS INCLUDING SUCH COMPOUNDS, AND USES OF SUCH COMPOUNDS AND COMPOSITIONS” (Juva Life, Inc., priority 2021, published 2025)", "system": "PANC-1 pancreatic carcinoma cell line", "assay": "PANC-1 cell line toxicity (Cell titer Glo viability)", "settings": "Homo sapiens, PANC-1, 72 h, read-out: IC50 (cell viability)", "method": "The half maximal inhibition concentration (IC50) for each compound was determined by harvesting cells during the logarithmic growth period and then counting cell number using hemocytometer. The cell concentrations were adjusted to 5×10^4 cells/mL with respective culture medium. 30 μL of cell suspensions were added to three 384-well plates with the final cell density of 1.5×10^3 cells/well. Then, using a Biomek FX, test articles were serially diluted (10 mM top, 3× dilution intervals) along with a reference inhibitor (1 mM top, 3× dilution intervals) in acoustic grade Labcyte plate. Then, using an acoustic dispenser (Labcyte550), compounds were added as serially diluted to plate with cells: 90 nL of serially diluted compounds per well. 90 nL DMSO is added to control wells. Test plates were incubated for 72 h in the humidified incubator at 37° C. with 5% CO2. 25 μL of reconstituted Cell titer Glo reagent was added to each well. Each test plate was then incubated for 20 min at room temperature. Luminescence was then recorded using Synergy Neo2Multi-mode Reader.\nIn order to calculate intersect IC50, a dose-response curve was fitted using nonlinear regression model with a sigmoidal dose response.\nThe formula for calculating surviving rate is shown below, and the intersect IC50 was calculated according to the dose-response curve generated by the software: […]"}
{"smiles": "CN[C@@H]1C[C@H]2O[C@@](C)([C@@H]1OC)n1c3ccccc3c3c4c(c5c6ccccc6n2c5c31)C(=O)NC4", "note": "[Staurosporine, staurosporine, reference compound]", "values": [{"measurement": "IC50", "value": "~80", "unit": "nM"}]}
